Laboratory results: the supplement of paper PMC10849652
The list shows a part of the results.

Protein sequences, listed by entry. Tags and fused reporters are not part of them. Lines headed by an entry give the natural chain unless they say otherwise; changes in a name come on top.
UniProt Q8IWE5: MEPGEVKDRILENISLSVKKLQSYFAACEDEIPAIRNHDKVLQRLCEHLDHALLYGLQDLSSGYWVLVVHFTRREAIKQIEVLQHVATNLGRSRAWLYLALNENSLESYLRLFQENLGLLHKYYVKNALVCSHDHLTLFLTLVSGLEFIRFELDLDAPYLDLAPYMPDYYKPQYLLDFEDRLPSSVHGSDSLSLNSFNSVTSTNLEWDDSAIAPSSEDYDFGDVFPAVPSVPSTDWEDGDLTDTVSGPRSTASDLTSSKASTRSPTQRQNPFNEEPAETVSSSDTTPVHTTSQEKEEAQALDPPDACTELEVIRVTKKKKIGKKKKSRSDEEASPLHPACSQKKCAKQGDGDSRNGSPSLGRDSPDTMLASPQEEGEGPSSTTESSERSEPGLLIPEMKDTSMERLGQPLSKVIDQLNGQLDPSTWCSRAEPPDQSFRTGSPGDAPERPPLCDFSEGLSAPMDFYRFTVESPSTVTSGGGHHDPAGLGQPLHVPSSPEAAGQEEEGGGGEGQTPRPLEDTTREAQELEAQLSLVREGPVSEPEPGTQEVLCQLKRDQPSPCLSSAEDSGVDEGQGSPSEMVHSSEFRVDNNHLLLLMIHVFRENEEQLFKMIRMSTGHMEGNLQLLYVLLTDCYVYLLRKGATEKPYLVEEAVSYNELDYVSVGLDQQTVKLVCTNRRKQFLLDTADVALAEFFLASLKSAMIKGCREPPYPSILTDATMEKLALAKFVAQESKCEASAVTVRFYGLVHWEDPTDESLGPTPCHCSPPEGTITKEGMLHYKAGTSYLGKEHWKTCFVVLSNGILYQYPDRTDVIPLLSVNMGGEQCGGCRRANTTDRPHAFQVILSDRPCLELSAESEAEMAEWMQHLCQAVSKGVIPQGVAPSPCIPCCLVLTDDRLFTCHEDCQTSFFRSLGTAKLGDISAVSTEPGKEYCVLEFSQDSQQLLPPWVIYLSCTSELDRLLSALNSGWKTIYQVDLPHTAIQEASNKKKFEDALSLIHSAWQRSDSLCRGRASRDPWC
UniProt P29590: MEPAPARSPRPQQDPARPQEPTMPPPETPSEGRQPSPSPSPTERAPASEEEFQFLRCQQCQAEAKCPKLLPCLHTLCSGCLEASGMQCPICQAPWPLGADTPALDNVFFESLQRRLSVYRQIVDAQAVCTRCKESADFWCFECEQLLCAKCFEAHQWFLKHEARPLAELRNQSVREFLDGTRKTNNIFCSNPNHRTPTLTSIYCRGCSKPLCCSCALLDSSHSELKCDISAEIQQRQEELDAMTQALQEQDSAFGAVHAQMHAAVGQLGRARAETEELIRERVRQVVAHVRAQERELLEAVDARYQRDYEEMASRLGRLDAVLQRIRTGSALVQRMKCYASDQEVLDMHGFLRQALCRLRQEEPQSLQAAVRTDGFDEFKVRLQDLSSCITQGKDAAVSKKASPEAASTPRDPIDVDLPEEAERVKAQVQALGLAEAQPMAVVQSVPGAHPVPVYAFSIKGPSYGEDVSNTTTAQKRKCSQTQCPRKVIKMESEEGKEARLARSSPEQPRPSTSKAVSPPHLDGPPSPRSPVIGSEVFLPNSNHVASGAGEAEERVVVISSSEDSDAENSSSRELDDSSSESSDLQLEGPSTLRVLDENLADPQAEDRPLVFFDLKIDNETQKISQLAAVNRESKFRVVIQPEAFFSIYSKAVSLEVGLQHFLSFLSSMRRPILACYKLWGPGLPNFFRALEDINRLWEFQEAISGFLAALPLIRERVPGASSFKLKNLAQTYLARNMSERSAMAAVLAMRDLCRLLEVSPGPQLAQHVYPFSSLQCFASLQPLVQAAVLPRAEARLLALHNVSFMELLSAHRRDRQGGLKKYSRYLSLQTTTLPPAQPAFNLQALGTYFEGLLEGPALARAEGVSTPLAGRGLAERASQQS
UniProt O43314: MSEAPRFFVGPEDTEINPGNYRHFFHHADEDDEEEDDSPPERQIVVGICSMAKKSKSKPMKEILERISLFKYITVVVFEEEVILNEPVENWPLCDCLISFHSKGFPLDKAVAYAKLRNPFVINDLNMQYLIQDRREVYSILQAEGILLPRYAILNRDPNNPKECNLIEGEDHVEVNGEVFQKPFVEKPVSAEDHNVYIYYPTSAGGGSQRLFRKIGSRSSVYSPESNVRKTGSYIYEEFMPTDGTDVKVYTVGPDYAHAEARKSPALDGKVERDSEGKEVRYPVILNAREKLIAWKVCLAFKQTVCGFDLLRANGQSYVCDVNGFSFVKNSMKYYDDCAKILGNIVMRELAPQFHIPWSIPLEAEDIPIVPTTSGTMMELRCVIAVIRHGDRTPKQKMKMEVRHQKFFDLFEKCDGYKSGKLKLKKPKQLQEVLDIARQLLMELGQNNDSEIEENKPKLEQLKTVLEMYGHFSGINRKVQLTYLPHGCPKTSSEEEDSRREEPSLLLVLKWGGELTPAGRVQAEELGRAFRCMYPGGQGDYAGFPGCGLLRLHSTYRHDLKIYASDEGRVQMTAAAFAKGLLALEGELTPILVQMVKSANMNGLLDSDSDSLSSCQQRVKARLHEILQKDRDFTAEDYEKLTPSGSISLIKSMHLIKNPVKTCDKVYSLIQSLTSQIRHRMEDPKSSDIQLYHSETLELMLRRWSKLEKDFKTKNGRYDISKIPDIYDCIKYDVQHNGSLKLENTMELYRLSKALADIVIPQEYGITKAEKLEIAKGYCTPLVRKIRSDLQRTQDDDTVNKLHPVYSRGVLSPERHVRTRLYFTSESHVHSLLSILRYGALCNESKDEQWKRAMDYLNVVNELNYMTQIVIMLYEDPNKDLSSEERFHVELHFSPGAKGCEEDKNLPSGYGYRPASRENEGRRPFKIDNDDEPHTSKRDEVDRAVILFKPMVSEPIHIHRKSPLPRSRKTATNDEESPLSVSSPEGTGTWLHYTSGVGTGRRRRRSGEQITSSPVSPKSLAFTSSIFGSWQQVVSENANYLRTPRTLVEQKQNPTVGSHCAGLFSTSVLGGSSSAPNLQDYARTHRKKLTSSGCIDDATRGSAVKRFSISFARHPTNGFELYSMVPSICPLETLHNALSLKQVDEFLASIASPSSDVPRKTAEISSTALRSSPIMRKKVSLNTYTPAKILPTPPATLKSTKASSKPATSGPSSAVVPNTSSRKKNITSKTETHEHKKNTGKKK
UniProt O43447: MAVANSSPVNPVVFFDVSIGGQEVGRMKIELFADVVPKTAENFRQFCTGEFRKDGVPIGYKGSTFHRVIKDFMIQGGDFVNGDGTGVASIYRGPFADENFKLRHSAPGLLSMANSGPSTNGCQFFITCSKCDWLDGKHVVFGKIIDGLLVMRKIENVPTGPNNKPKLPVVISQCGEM
UniProt O94903: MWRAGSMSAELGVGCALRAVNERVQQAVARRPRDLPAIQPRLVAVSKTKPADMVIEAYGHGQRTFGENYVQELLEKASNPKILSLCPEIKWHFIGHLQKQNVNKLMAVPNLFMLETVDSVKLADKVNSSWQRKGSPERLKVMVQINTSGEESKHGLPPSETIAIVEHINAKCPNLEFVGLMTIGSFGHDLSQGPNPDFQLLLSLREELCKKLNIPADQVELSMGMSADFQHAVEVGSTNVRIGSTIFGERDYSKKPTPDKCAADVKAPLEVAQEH
UniProt O15318: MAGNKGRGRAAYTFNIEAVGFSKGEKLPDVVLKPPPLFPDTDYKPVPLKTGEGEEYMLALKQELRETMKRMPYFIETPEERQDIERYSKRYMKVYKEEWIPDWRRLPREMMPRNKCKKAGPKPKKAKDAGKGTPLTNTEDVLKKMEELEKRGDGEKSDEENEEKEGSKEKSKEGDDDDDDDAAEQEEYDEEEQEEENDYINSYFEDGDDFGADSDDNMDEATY
UniProt O15031: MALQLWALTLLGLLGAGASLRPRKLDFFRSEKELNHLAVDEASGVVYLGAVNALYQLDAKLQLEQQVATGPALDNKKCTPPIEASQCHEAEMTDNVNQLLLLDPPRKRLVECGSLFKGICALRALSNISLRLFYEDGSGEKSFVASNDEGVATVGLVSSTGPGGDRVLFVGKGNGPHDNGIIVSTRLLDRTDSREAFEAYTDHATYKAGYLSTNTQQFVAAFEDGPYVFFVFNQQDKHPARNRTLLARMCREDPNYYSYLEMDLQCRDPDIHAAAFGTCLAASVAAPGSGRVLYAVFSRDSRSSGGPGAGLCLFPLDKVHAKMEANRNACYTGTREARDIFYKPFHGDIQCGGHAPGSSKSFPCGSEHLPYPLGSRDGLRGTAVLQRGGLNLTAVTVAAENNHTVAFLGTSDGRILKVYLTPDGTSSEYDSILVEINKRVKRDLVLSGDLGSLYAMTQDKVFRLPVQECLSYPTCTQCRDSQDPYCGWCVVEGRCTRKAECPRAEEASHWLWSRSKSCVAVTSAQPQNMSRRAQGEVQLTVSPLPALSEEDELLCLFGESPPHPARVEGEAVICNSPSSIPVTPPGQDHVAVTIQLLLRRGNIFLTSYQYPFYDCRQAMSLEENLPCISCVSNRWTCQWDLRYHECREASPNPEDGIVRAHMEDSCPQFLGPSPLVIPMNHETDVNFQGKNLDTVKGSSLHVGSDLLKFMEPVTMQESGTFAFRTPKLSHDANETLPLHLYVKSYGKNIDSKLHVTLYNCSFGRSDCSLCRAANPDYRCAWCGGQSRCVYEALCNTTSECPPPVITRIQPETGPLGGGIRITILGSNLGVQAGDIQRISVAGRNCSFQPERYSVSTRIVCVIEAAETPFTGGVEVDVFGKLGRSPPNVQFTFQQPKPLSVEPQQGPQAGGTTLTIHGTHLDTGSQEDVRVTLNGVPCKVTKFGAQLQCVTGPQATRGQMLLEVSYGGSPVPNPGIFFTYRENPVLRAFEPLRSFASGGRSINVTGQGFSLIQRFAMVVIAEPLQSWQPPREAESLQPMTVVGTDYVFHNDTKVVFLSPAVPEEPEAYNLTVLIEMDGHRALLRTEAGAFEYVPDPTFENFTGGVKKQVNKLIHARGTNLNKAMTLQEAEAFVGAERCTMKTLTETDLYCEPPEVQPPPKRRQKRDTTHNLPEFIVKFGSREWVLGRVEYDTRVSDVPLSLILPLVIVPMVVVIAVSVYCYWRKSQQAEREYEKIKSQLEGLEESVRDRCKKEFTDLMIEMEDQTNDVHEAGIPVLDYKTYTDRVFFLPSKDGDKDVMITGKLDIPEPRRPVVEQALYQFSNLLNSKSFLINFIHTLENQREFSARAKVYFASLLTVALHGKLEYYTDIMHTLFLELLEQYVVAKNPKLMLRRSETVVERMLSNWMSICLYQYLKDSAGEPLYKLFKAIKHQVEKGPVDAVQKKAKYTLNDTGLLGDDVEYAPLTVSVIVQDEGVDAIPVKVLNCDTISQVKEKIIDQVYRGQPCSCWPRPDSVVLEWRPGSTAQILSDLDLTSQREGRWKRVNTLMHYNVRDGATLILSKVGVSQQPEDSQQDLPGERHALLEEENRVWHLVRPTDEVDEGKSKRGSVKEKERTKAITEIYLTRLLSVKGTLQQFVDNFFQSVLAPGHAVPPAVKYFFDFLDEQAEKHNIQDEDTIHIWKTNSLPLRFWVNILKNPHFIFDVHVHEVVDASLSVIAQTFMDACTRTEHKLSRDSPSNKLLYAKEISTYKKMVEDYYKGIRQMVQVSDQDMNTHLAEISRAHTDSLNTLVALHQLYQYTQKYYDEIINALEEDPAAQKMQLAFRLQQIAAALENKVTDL
UniProt Q8WZA1: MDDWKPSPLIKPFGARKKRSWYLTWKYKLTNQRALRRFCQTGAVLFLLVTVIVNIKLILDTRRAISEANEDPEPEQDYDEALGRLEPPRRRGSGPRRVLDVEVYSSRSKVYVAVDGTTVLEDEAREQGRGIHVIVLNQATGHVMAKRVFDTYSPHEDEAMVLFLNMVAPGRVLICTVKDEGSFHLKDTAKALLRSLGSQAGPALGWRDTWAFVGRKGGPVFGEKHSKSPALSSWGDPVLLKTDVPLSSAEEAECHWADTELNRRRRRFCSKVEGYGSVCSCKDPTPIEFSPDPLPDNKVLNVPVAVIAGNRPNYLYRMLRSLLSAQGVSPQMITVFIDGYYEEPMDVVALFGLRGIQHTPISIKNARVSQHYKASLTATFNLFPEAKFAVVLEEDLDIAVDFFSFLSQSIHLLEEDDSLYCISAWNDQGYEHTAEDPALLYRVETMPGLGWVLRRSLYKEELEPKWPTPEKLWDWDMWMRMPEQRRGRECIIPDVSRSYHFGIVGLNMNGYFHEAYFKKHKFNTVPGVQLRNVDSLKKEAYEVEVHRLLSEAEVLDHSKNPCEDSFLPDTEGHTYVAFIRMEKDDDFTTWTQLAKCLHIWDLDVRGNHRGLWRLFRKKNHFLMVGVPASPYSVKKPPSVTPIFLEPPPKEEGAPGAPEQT
UniProt Q6P1K2: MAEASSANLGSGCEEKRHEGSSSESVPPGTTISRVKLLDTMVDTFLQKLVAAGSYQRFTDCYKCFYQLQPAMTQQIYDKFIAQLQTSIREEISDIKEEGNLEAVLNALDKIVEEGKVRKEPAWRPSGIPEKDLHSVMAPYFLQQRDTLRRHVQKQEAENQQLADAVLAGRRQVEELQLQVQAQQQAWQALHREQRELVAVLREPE

How the values were obtained:
Test in all cases: log2 fold change, soluble protein after heating vs DMSO (PISA); higher = thermal stabilisation; K562 cells, 10 uM, 30 min; active = over 0.2 and 3.5 SD of the protein, either way, in both replicates (recomputed)
[1] = compound: NC(=O)Nc1cc(-c2cccc(F)c2)sc1C(=O)N[C@H]1CCCNC1
Summary of the method: (§1)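 K562 cells at 2×10^6 cells/mL were treated with 10 μM compound for 30 min. Aliquots were heated for 3 min across 48°C-58°C, pooled, and extracted in PBS with 0.5% NP-40 at 4°C; soluble protein was the supernatant after 21,000xg for 90 min. Soluble protein was quantified by TMTpro 16plex LC-MS/MS with channel sums equalised, and reported as log2 fold change in thermal stability against DMSO controls, with values from duplicates.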

[2] = compound: NC(=O)c1cnc(N[C@@H]2CCCC[C@@H]2N)nc1Nc1cccc(-n2nccn2)c1
Summary of the method: as §1

[3] = compound: NC1(c2ccc(-c3nc4ccn5c(=O)[nH]nc5c4cc3-c3ccccc3)cc2)CCC1
Summary of the method: as §1

[4] = compound: NCC(=O)Nc1ccc(-n2nc(C(F)(F)F)cc2-c2ccc3c(ccc4ccccc43)c2)cc1
Summary of the method: as §1

[5] = compound: Nc1ccccc1NC(=O)c1ccc(CNC(=O)OCc2cccnc2)cc1 [entinostat]
Summary of the method: as §1

[6] = compound: O=C(CCCCCCC(=O)Nc1ccccc1)NO [vorinostat]
Summary of the method: as §1

[7] = compound: O=C(CCCCCCNC(=O)c1cnc(N(c2ccccc2)c2ccccc2Cl)nc1)NO [citarinostat]
Summary of the method: as §1

[8] = compound: O=C(O)c1ccc2c(c1)nc(Nc1cccc(Cl)c1)c1ccncc12 [silmitasertib]
Summary of the method: as §1

[9] = compound: O=C1NC(=O)C(c2cnc3ccccn23)=C1c1cn2c3c(cc(F)cc13)CN(C(=O)N1CCCCC1)CC2
Summary of the method: as §1

[10] = compound: c1cc(OCCN2CCCCC2)cc(-c2n[nH]c3ccc(-c4nnc[nH]4)cc23)c1
Summary of the method: as §1

[11] = compound: c1cn2cc(-c3ccc4cn[nH]c4c3)nc(Nc3ccc(N4CCOCC4)cc3)c2n1 [entospletinib]
Summary of the method: as §1

Measured: log2 fold change

PLEKHM2 (UniProt Q8IWE5)
inactive: [1] 0.01 | [2] -0.102 | [4] -0.107 | [5] 0.024 | [6] 0.072 | [7] 0.109 | [8] -0.058 | [9] -0.009 | [10] -0.125
active: [3] -0.315

PML (UniProt P29590)
inactive: [1] 0.021 | [2] -0.027 | [3] -0.029 | [4] 0.015 | [5] -0.002 | [6] -0.059 | [7] 0.019 | [8] 0.088 | [9] 0.002 | [10] -0.042

POFUT1 (UniProt Q9H488)
inactive: [1] -0.015 | [2] -0.033 | [3] -0.032 | [4] 0.087 | [5] -0.009 | [6] -0.011 | [7] 0.021 | [8] 0.022 | [9] -0.003 | [10] -0.08 | [11] 0.008

PNO1 (UniProt Q9NRX1)
inactive: [1] 0.022 | [2] 0.133 | [3] 0.08 | [4] -0.037 | [5] 0.072 | [6] 0.217 | [7] 0.05 | [8] -0.017 | [9] 0.154 | [10] -0.079 | [11] -0.062

PPIP5K2 (UniProt O43314)
inactive: [1] -0.063 | [2] -0.057 | [3] -0.016 | [4] -0.052 | [5] 0.015 | [6] 0.01 | [7] 0.031 | [8] -0.037 | [9] -0.09 | [10] -0.003 | [11] 0.044

PPIH (UniProt O43447)
inactive: [1] -0.077 | [2] -0.037 | [3] -0.079 | [4] -0.064 | [5] 0.042 | [6] 0.034 | [7] 0.025 | [8] -0.009 | [9] -0.076 | [10] -0.01 | [11] 0.022

PLPBP (UniProt O94903)
inactive: [1] -0.045 | [2] -0.114 | [3] -0.086 | [4] -0.055 | [5] 0.041 | [6] 0.032 | [7] -0.076 | [8] 0.045 | [9] 0.023 | [10] 0.1 | [11] 0.143

POLR3G (UniProt O15318)
inactive: [1] 0.053 | [2] -0.109 | [3] 0.003 | [4] 0.005 | [5] 0.013 | [6] 0.032 | [7] 0.061 | [8] 0.008 | [9] 0.009 | [10] 0.007 | [11] -0.114

Pulled one by one from above (2):
PPIP5K2 (UniProt O43314)
inactive: [1] -0.063 | [2] -0.057 | [3] -0.016 | [4] -0.052 | [5] 0.015 | [6] 0.01 | [7] 0.031 | [8] -0.037 | [9] -0.09 | [10] -0.003 | [11] 0.044

PLPBP (UniProt O94903)
inactive: [1] -0.045 | [2] -0.114 | [3] -0.086 | [4] -0.055 | [5] 0.041 | [6] 0.032 | [7] -0.076 | [8] 0.045 | [9] 0.023 | [10] 0.1 | [11] 0.143

Continued.

PLXNB2 (UniProt O15031)
inactive: [1] -0.124 | [2] -0.007 | [3] -0.09 | [4] 0.06 | [5] -0.039 | [6] 0.138 | [7] 0.006 | [8] 0.004 | [9] -0.068 | [10] -0.049 | [11] -0.048

POMK (UniProt Q9H5K3)
inactive: [1] 0 | [2] 0.058 | [3] -0.173 | [4] -0.044 | [5] 0.045 | [6] 0.04 | [7] 0.105 | [8] 0.101 | [9] 0.017 | [10] -0.303
active: [11] -0.293

POMGNT1 isoform 2 (UniProt Q8WZA1)
inactive: [1] -0.301 | [2] 0.012 | [3] -0.2 | [4] -0.123 | [5] -0.12 | [6] -0.008 | [7] -0.089 | [8] -0.058 | [9] 0.003 | [10] -0.311 | [11] 0.147

POLR2H (UniProt P52434)
inactive: [1] -0.018 | [2] 0.001 | [3] -0.141 | [4] -0.108 | [5] 0.012 | [6] -0.099 | [7] 0.025 | [8] 0.045 | [9] -0.062 | [10] -0.101 | [11] 0.053

PMF1 (UniProt Q6P1K2)
inactive: [1] -0.163 | [2] -0.015 | [3] -0.072 | [4] 0.047 | [5] 0.141 | [6] 0.049 | [7] 0.076 | [8] 0.048 | [9] -0.029 | [10] 0.072 | [11] -0.017

POLR3C (UniProt Q9BUI4)
inactive: [1] 0.016 | [2] -0.042 | [3] -0.027 | [4] 0.02 | [5] -0.009 | [6] -0.003 | [7] -0.003 | [8] -0.013 | [9] -0.068 | [10] 0.037 | [11] 0.007
